From US7112698B2, “4-(c2-6alkoxy)-substituted chalcones as therapeutic agents” (Spear Therapeutics Limited, priority 2001, dated 2006)

What was measured:
[1] = tested on: MDA-468 advanced breast cancer cell line; test: MDA-468 tumour cell line cytotoxicity assay; format: cell-based, human
Procedure: (§1) Cells were maintained in RPMI 1640 with Glutamax 1 (Life Technologies) with 10% (v/v) heat inactivated foetal calf serum (Hybrimax. Sigma), at 37° C., 5% CO2/95% air with 100% humidity and passaged using trypsin/EDTA. 1×10^3 cells were plated out in 100 μl medium per well of 96-well flat-bottomed plates (Fisher). After 4 hours to allow adherance, 100 μl of medium containing TCDD (British Greyhound Chromatography; 10 μM stock in DMSO (dimethylsulfoxide)) or medium with 0.2% (v/v) DMSO as control was added to each well to give a final concentration of 10 nM TCDD, 0.1% (v/v) DMSO, for 24 hours to allow maximal CYP expression. The medium was then carefully aspirated and 100 μl fresh medium added. Within 30 minutes test compound was added in quadruplicate in 100 μl medium (with or without inhibitors) at double the final concentration from 100 mM stock in DMSO to give a final concentration of not more than 0.1% (v/v) DMSO, or DMSO solvent alone at 0.1% (v/v) as control. The cells were then allowed to grow on for 96 hours to give 80–90% confluence in the control wells. […] Plates were vortexed and the absorbance at 540 nm determined using a plate reader. […]
(§2) The tumour selectivity differential factor (TSDF) is calculated by dividing the IC50 obtained from the MCF-10A data by the IC50 obtained from the MDA-468 data.

[2] = tested on: MCF-10A normal breast cell line; test: MCF-10A normal cell line cytotoxicity assay; format: cell-based; conditions: Homo sapiens, without TCDD
Procedure: as §1, §2

CC/C(=C(\c1ccccc1)c1ccc(OCCN(C)C)cc1)c1ccccc1 [Tamoxifen, tamoxifen]
IC50 ([1]; Homo sapiens, without TCDD): 4 µM | Tumour Selectivity Differential Factor ([1]; IC50 MCF-10A divided by IC50 MDA-468 (Table 2)): 1.6 | IC50 [2]: 6.3 µM
